In patent US20240199693A1 (priority 2021, published 2024):

Assay: general procedure: solution-phase peptide synthesis; DCC
Conditions: acetate
[1] = late stage modification step, based on the starting methyl ester (II)

| Substance | step yield (coupling step, based on the starting hexapeptide (IV)) | step yield [1] |
| --- | --- | --- |
| Cbz-Tyr-D-Ala-Gly-Phe-Leu-Arg-Arg-OCH3 acetate | about 65% |  |
| H-Tyr-D-Ala-Gly-Phe-Leu-Arg-Arg-NHC2H5 acetate (AGFLRR; N-terminal Tyr-D-, C-terminal ethylamide, acetate; printed: Ala-Gly-Phe-Leu-Arg-Arg-) |  | 81% |
| H-Tyr-D-Ala-Gly-Phe-Leu-Arg-Arg-N(CH3)2 acetate (AGFLRR; N-terminal Tyr-D-, C-terminal dimethylamide, acetate; printed: Ala-Gly-Phe-Leu-Arg-Arg-) |  | 69% |
| H-Tyr-D-Ala-Gly-Phe-Leu-Arg-Arg-NHC4H9 acetate (AGFLRR; N-terminal Tyr-D-, C-terminal butylamide, acetate; printed: Ala-Gly-Phe-Leu-Arg-Arg-) |  | 63% |
| H-Tyr-D-Ala-Gly-Phe-Leu-Arg-Arg-NH2 acetate (AGFLRR; N-terminal Tyr-D-, C-terminal amide, acetate; printed: Ala-Gly-Phe-Leu-Arg-Arg-) |  | 74% |
